The target in the test is Domino (D. melanogaster (endogenous in embryos)) (UniProt Q9NDJ2). Kind of test: co-IP; Drosophila embryonic nuclear extracts (about 200 ug protein); antibodies coupled to Protein-G Agarose; 20 mM Tris-HCl pH 7.9, 0.5 mM EDTA, 150 mM NaCl, 10% glycerol, 3 h at 4 C; washes with 0.01% NP-40; western blot; dRsf-1/ISWI also with 80 ug/ml ethidium bromide. Background: In western blotting, separated proteins are transferred to a membrane and probed.

By UniProt entry, the sequences of proteins in these tests, tags left out.
UniProt Q9NDJ2: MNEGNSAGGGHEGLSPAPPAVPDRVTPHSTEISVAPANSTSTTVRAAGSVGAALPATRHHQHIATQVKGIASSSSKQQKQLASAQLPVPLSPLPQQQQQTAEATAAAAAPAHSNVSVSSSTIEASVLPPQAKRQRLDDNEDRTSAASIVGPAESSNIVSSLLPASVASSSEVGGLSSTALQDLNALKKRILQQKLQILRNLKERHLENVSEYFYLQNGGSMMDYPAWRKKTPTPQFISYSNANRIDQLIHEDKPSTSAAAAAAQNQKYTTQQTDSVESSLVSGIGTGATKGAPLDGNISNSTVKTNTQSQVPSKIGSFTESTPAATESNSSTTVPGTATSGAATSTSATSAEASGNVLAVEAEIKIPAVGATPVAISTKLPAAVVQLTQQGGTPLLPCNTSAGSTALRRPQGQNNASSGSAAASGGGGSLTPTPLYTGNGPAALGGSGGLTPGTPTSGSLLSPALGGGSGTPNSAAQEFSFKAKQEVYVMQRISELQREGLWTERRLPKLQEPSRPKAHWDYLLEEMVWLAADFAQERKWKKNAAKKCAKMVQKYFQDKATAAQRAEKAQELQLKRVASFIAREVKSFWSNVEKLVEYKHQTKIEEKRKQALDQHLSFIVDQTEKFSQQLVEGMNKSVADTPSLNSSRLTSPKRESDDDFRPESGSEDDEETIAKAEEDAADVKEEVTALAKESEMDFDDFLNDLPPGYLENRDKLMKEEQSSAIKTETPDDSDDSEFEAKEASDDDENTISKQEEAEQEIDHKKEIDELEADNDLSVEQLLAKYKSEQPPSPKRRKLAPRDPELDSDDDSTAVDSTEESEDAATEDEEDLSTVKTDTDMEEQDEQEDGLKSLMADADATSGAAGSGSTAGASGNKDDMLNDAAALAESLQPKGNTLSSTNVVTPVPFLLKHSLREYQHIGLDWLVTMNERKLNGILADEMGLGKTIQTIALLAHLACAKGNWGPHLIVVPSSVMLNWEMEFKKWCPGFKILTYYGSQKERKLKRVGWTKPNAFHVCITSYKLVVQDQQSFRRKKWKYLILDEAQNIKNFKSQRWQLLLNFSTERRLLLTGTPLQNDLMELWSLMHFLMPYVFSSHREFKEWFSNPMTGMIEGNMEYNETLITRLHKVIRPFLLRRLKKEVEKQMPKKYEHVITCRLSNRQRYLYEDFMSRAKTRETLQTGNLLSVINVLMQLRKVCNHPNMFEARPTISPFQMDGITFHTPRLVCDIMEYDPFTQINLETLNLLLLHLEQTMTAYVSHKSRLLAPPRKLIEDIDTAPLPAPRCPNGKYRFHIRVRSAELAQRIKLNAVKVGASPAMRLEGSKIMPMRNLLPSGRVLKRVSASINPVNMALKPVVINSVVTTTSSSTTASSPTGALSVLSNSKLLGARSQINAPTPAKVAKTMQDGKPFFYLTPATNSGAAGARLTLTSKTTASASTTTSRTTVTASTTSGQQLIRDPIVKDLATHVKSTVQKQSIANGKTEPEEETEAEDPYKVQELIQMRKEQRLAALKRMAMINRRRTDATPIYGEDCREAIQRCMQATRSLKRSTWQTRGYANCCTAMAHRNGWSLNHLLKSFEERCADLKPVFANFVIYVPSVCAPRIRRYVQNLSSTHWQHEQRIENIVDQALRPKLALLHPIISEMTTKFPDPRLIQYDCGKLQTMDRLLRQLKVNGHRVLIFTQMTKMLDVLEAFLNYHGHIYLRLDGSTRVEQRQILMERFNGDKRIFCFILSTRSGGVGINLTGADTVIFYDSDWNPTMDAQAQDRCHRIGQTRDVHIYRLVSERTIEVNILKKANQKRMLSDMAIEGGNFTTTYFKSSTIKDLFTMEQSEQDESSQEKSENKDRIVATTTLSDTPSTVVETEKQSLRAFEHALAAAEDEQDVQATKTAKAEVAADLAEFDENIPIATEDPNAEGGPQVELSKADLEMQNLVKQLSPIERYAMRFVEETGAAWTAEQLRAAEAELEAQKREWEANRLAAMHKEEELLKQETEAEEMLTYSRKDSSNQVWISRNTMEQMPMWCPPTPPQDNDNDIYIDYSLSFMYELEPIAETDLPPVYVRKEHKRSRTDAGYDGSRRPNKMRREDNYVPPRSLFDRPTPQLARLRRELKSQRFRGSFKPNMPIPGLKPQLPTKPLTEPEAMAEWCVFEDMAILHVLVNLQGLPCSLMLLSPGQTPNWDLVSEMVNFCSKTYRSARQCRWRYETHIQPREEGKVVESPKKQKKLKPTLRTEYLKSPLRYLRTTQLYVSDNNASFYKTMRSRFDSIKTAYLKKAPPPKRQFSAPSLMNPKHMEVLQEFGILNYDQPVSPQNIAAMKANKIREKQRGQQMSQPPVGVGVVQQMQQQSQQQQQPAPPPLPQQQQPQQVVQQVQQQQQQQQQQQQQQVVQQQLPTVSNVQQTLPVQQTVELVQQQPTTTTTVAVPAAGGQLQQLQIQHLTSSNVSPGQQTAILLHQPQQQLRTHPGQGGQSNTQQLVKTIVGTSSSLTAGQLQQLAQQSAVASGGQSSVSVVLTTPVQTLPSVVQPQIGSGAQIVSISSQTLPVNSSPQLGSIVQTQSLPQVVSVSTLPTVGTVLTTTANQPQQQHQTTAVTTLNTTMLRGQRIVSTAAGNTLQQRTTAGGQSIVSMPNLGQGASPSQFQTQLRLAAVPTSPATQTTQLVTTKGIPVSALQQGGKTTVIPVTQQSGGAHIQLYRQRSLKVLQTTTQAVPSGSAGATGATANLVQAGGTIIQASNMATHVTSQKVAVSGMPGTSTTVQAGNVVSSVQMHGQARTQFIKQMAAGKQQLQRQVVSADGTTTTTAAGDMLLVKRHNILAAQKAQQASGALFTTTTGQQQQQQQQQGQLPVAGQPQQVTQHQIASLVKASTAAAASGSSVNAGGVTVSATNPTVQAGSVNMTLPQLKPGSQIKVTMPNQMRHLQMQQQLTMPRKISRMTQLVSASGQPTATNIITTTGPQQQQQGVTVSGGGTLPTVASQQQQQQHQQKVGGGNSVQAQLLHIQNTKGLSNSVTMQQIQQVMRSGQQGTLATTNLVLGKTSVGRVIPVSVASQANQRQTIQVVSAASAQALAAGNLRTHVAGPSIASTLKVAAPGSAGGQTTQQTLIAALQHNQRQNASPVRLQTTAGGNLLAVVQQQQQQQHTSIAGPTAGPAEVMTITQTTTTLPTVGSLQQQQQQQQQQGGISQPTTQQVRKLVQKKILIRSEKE
UniProt Q24368: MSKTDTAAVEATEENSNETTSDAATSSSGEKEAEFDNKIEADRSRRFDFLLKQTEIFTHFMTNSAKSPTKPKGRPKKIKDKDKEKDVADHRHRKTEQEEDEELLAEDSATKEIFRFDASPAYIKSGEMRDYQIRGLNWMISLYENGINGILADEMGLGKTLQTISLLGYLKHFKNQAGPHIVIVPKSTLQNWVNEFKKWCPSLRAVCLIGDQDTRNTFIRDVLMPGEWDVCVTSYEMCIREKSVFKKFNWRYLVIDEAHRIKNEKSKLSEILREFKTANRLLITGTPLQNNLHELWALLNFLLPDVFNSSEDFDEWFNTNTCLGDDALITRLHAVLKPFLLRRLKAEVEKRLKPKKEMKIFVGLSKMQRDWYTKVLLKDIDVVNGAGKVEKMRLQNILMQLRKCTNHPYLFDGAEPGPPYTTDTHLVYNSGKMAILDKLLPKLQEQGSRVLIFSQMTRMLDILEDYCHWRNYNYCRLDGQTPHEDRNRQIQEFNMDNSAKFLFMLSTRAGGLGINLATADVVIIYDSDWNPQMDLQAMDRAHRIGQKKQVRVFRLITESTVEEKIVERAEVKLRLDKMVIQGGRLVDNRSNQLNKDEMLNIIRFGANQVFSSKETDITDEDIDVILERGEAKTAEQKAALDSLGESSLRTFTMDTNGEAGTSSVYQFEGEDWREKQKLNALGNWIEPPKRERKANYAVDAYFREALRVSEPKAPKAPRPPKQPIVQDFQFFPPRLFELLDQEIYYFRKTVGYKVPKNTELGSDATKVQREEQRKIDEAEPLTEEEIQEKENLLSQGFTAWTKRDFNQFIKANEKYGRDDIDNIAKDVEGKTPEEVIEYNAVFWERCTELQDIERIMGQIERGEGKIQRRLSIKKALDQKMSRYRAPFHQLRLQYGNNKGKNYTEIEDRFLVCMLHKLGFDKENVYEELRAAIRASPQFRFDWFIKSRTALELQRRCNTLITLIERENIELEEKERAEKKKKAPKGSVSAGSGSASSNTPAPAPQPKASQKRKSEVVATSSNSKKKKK

Results are given in words; binding and its absence hold for the method and conditions named. In cells and extracts the contact can be indirect. Some entries that bind do so weakly or less than the wild type.

Take ISWI (from UniProt Q24368 1-1027): the binding result is recorded as “binds”.

The values above are taken from publication PMC2265536.
